Data: patent publication US20200131144A1, “AMINE OR (THIO)AMIDE CONTAINING LXR MODULATORS” (Phenex-FXR GmbH, priority 2017, published 2020)

Sequences of proteins named here, by UniProt entry; tags and fusion partners are left off. A line that says so, or that is headed by a name, gives the form on record, which may keep a tag or linker. Residues count along the entry.
UniProt P55055, with tags, fused parts or gaps INS174Q: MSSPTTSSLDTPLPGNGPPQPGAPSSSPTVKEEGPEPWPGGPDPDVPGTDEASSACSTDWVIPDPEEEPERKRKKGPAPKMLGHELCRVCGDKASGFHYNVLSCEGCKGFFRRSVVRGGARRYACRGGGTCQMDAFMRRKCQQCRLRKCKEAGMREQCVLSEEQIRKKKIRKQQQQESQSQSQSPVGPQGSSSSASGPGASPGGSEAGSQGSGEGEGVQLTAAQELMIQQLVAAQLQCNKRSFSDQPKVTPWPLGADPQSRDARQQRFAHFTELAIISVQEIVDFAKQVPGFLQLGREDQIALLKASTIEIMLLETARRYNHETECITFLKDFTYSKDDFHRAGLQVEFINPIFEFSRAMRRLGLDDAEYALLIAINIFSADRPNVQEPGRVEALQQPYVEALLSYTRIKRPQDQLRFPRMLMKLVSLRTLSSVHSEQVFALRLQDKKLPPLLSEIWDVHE
UniProt P55055, 156-460 with tags or gaps INS174Q limits assumed: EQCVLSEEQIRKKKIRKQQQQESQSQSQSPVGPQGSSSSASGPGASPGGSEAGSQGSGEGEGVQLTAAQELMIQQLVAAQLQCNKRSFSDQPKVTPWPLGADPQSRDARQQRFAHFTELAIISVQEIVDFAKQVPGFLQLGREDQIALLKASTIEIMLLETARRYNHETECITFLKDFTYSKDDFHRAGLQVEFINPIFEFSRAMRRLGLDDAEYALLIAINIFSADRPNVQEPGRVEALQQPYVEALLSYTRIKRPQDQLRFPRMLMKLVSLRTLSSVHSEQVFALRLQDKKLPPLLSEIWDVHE
UniProt Q13133, whole entry: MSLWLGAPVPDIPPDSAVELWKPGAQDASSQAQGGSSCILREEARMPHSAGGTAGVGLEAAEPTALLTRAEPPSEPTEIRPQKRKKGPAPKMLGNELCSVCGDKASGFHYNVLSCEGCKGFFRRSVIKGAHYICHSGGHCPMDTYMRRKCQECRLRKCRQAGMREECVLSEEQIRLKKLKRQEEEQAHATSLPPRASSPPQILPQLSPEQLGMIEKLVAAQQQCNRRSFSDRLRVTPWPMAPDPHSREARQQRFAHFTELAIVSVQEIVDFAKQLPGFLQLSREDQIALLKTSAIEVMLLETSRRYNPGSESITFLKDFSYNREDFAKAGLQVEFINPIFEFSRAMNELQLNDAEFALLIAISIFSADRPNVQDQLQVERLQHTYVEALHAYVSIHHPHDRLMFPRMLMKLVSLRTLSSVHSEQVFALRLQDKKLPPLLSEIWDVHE

Legend:
[1] = biological target: GST-LXRβ ligand-binding domain (Homo sapiens, UniProt P55055, INS174Q); assay: TR-FRETβ activity assay (NCoA3 coactivator peptide recruitment); conditions: read-out: FRETβ; 1 μM 24(S)-25-epoxycholesterol as prestimulating agonist; inverse agonist unless *
Method: (§1) The tested compounds were usually dissolved, tested and stored as 20 mM stock solutions in DMSO. Since sulfonyl acetic acid derivatives tend to decarboxylate under these conditions, these stock solutions were prepared, tested and stored as 20 mM DMSO stock solutions containing 100 mM trifluoroacetic acid (5 equivalents). Sulfonyl acetic acid derivatives are shelf stable as solid at rt for long time as reported by Griesbrecht et al. (Synlett 2010:374) or Faucher et al. (J. Med. Chem. 2004; 47:18).
Recombinant GST-LXRβ ligand-binding domain (LBD; amino acids 156-461; NP009052; SEQ ID NO:4) was expressed in E. coli and purified via gluthatione-sepharose affinity chromatography. N-terminally biotinylated NCoA3 coactivator peptide (SEQ ID NO:7) was chemically synthesized (Eurogentec). Assays were done in 384 well format (final assay volume of 25 μL/well) in a Tris/HCl buffer (pH 6.8) containing KCl, bovine serum albumin, Triton-X-100 and 1 μM 24(S)-25-epoxycholesterol as LXR-prestimulating agonist. […] The reaction was mixed thoroughly, equilibrated for 1 h at 4° C. and vicinity of LXRβ and coactivator peptide was detected by measurement of fluorescence in a VictorX4 multiplate reader (PerkinElmer Life Science) using 340 nm as excitation and 615 and 665 nm as emission wavelengths. […]

LXRβ full length (FL) = LXRβ full length (FL) (Homo sapiens, UniProt P55055, INS174Q); assay: LXR Gal4 reporter transient transfection assay, mammalian two-hybrid, FL-M2H Gal4β; conditions: read-out: FL-M2H Gal4β; HEK293 cells; inverse agonist unless *
Method: as §1
(§2) LXR Gal4 Reporter Transient Transfection Assays
(§3) LXRα and LXRβ activity status was determined via detection of interaction with coactivator and corepressor proteins in mammalian two-hybrid experiments (M2H). […] As cofactors, domains of either the steroid receptor coactivator 1 (SRC1; amino acids 552-887; SEQ ID NO:5) or of the corepressor NCoR (amino acids 1906-2312; NP006302; SEQ ID NO:6) were expressed as fusions to the DNA binding domain of the yeast transcription factor GAL4 (from pCMV-BD; Stratagene). Interaction was monitored via activation of a coexpressed Firefly Luciferase Reporter gene under control of a promoter containing repetitive GAL4 response elements (vector pFRLuc; Stratagene). […] Measurements of luminescence were done in a BMG-luminometer.

LXRα full length (FL) = LXRα full length (FL) (Homo sapiens, UniProt Q13133); assay: LXR Gal4 reporter transient transfection assay, mammalian two-hybrid, FL-M2H Gal4α; conditions: read-out: FL-M2H Gal4α; HEK293 cells; inverse agonist unless *
Method: as §1, §2, §3

Cc1nc2cccnn2c1C(=O)N(Cc1ccc(-c2cccc(C(C)(C)C(=O)O)c2)cc1)Cc1ccc(C(F)(F)F)o1 [27/116]
EC50 [1]: 1000 to 10000 nM
EC50 (LXRβ full length (FL)): 100 to 1000 nM
EC50 (LXRα full length (FL)): 100 to 1000 nM

Structures were worked out from names or drawings and are uncertain.
